According to patent publication US9914750B2, “Synthetic peptides and peptide mimetics” (University of Louisville Research Foundation, priority 2007, dated 2018):
Part of at least one peptide drawing is inferred or uncertain, most often the ends. No end group written: not given here.

Tested on: P. aeruginosa PAO1
Assay: Time course of bacterial agglutination (OD 675 nm)
Format: cell-based, Pseudomonas aeruginosa
Conditions: time course up to 120 min

GQIINLKASLDLL [GL13-OH, GQIINLKASLDLL]
agglutination ability relative to the amidated peptide: about 50%
